Reference: the supplement of paper PMC12282887
± gives the standard deviation of the averaged measurements. These are raw signals, not scaled to a control.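 For antimicrobials the highest concentration approximated the MIC. Most other compounds topped out at 500 µM, and known inducer-like compounds reached up to 1 mM. Inocula for deletion strains were tenfold smaller, and any well growing below 10% of the overall median was considered non-growing.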

Tested on: Escherichia coli BW25113
Test: growth (OD600 area under curve, 8 h) (OD600 x h); higher = more growth
Description: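 E. coli BW25113 reporter strains (wild type, ΔmarA, ΔsoxS, Δrob, each carrying one of 8 lux reporter plasmids) were grown in 40 µl LB in 384-well plates at 37°C, 800 rpm, with each compound at 4 two-fold concentrations, in biological duplicates. Growth is the baseline-corrected OD600 area under the curve over 8 h (0-8 h WT, 1-9 h deletion strains).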

NCCc1c[nH]c2ccc(O)cc12 [Serotonine]
growth
Settings | reporter plasmid: EVC | reporter plasmid: acrABp | reporter plasmid: marRABp | reporter plasmid: micFp | reporter plasmid: ompFp | reporter plasmid: robp | reporter plasmid: soxSp | reporter plasmid: tolCp
13.3 µg/ml, genetic background: wild type | 3.325 ± 0.026 | 3.08 ± 0.087 | 3.39 ± 0.27 | 3.11 ± 0.32 | 3.33 ± 0.38 | 3.47 ± 0.22 | 3.05 ± 0.054 | 3.013 ± 0.018
13.3 µg/ml, genetic background: ΔmarA | 3.03 ± 0.038 | 4.34 ± 0.59 | 3.871 ± 0.017 | 3.42 ± 1.1 | 3.75 ± 0.49 | 4.25 ± 0.23 | 2.86 ± 0.27 | 2.95 ± 0.058
13.3 µg/ml, genetic background: Δrob | 3.03 ± 0.092 | 2.95 ± 0.18 | 3.42 ± 0.37 | 3.03 ± 0.29 | 2.95 ± 0.27 | 2.89 ± 0.11 | 2.76 ± 0.29 | 2.82 ± 0.31
13.3 µg/ml, genetic background: ΔsoxS | 3.41 ± 0.15 | 3.53 ± 0.28 | 3.47 ± 0.5 | 3.07 ± 0.35 | 3.22 ± 0.17 | 3.35 ± 0.42 | 3.16 ± 0.24 | 3.38 ± 0.2
26.6 µg/ml, genetic background: wild type | 3.22 ± 0.06 | 3.13 ± 0.07 | 3.41 ± 0.068 | 3.01 ± 0.058 | 3.31 ± 0.14 | 3.44 ± 0.044 | 2.88 ± 0.18 | 3 ± 0.084
26.6 µg/ml, genetic background: ΔmarA | 2.814 ± 0.019 | 4.21 ± 0.31 | 3.67 ± 0.092 | 3.28 ± 1 | 3.63 ± 0.73 | 4.05 ± 0.27 | 2.64 ± 0.27 | 2.81 ± 0.14
26.6 µg/ml, genetic background: Δrob | 2.9645 ± 0.0026 | 3.04 ± 0.059 | 3.36 ± 0.57 | 2.72 ± 0.15 | 2.97 ± 0.38 | 2.8 ± 0.19 | 2.47 ± 0.32 | 2.75 ± 0.31
26.6 µg/ml, genetic background: ΔsoxS | 3.28 ± 0.13 | 3.27 ± 0.17 | 3.5 ± 0.55 | 2.98 ± 0.22 | 3.16 ± 0.25 | 3.39 ± 0.36 | 3.23 ± 0.39 | 3.31 ± 0.083
53.2 µg/ml, genetic background: wild type | 3.25 ± 0.087 | 3.14 ± 0.12 | 3.4 ± 0.27 | 3.19 ± 0.029 | 3.36 ± 0.16 | 3.53 ± 0.1 | 3.09 ± 0.16 | 3.26 ± 0.067
53.2 µg/ml, genetic background: ΔmarA | 2.99 ± 0.011 | 4.02 ± 0.44 | 3.78 ± 0.24 | 3.48 ± 0.67 | 3.7 ± 0.55 | 4.13 ± 0.22 | 2.95 ± 0.6 | 2.98 ± 0.13
53.2 µg/ml, genetic background: Δrob | 3 ± 0.21 | 2.94 ± 0.18 | 3.41 ± 0.69 | 3.12 ± 0.17 | 2.87 ± 0.23 | 2.66 ± 0.18 | 2.73 ± 0.45 | 3.09 ± 0.031
53.2 µg/ml, genetic background: ΔsoxS | 3.33 ± 0.29 | 3.41 ± 0.094 | 3.48 ± 0.6 | 3 ± 0.34 | 3.2 ± 0.27 | 3.26 ± 0.38 | 3.22 ± 0.16 | 3.43 ± 0.14
106.3 µg/ml, genetic background: wild type | 3.24 ± 0.06 | 2.99 ± 0.031 | 3.388 ± 0.033 | 3.17 ± 0.23 | 3.39 ± 0.22 | 3.02 ± 0.77 | 2.88 ± 0.44 | 3.226 ± 0.024
106.3 µg/ml, genetic background: ΔmarA | 3.03 ± 0.033 | 4.05 ± 0.69 | 3.48 ± 0.26 | 3.29 ± 0.7 | 3.74 ± 0.64 | 4.01 ± 0.42 | 2.94 ± 0.7 | 2.97 ± 0.13
106.3 µg/ml, genetic background: Δrob | 3.1 ± 0.35 | 2.95 ± 0.22 | 3.5 ± 0.3 | 2.93 ± 0.3 | 2.53 ± 0.6 | 2.72 ± 0.31 | 2.47 ± 0.41 | 3.11 ± 0.066
106.3 µg/ml, genetic background: ΔsoxS | 3.3 ± 0.15 | 3.41 ± 0.094 | 3.19 ± 0.7 | 3.01 ± 0.1 | 3.06 ± 0.25 | 3.24 ± 0.24 | 3.18 ± 0.093 | 3.33 ± 0.065

N=C(NCCCCCCNC(=N)NC(=N)Nc1ccc(Cl)cc1)NC(=N)Nc1ccc(Cl)cc1 [Chlorhexidine]
growth
Settings | reporter plasmid: EVC | reporter plasmid: acrABp | reporter plasmid: marRABp | reporter plasmid: micFp | reporter plasmid: ompFp | reporter plasmid: robp | reporter plasmid: soxSp | reporter plasmid: tolCp
0.063 µg/ml, genetic background: wild type | 2.99 ± 0.063 | 2.66 ± 0.22 | 3.16 ± 0.21 | 3.32 ± 0.12 | 2.86 ± 0.11 | 3.18 ± 0.28 | 3.11 ± 0.088 | 3.06 ± 0.065
0.063 µg/ml, genetic background: ΔmarA | 3.05 ± 0.33 | 4.24 ± 0.62 | 3.67 ± 0.43 | 3.34 ± 0.87 | 3.49 ± 0.8 | 3.63 ± 0.41 | 2.91 ± 0.56 | 2.89 ± 0.35
0.063 µg/ml, genetic background: Δrob | 2.73 ± 0.75 | 3.16 ± 0.1 | 3.26 ± 0.13 | 3.14 ± 0.23 | 2.48 ± 0.42 | 2.69 ± 0.1 | 2.892 ± 0.025 | 3.035 ± 0.024
0.063 µg/ml, genetic background: ΔsoxS | 3.11 ± 0.063 | 3.2 ± 0.39 | 3.32 ± 0.77 | 2.91 ± 0.24 | 2.92 ± 0.038 | 3.14 ± 0.22 | 3.16 ± 0.36 | 2.97 ± 0.3
0.13 µg/ml, genetic background: wild type | 2.85 ± 0.064 | 2.67 ± 0.31 | 3.35 ± 0.059 | 3.28 ± 0.053 | 2.916 ± 0.0065 | 3.18 ± 0.17 | 2.98 ± 0.05 | 2.98 ± 0.14
0.13 µg/ml, genetic background: ΔmarA | 2.85 ± 0.042 | 3.98 ± 0.13 | 3.56 ± 0.05 | 3.13 ± 1 | 3.37 ± 1.2 | 3.4 ± 0.47 | 2.68 ± 0.82 | 2.75 ± 0.22
0.13 µg/ml, genetic background: Δrob | 2.63 ± 0.62 | 3.31 ± 0.13 | 3.19 ± 0.037 | 3.11 ± 0.35 | 2.6 ± 0.41 | 2.74 ± 0.23 | 2.87 ± 0.34 | 3.06 ± 0.23
0.13 µg/ml, genetic background: ΔsoxS | 3.11 ± 0.27 | 3.17 ± 0.63 | 3.27 ± 0.6 | 2.72 ± 0.47 | 2.883 ± 0.005 | 3.3 ± 0.25 | 3.02 ± 0.22 | 2.74 ± 0.16
0.25 µg/ml, genetic background: wild type | 2.84 ± 0.23 | 2.86 ± 0.21 | 3.25 ± 0.2 | 3.23 ± 0.034 | 3.06 ± 0.064 | 3.31 ± 0.13 | 3.08 ± 0.14 | 3.05 ± 0.038
0.25 µg/ml, genetic background: ΔmarA | 3.05 ± 0.3 | 3.76 ± 0.59 | 3.59 ± 0.46 | 3.23 ± 0.89 | 3.46 ± 0.84 | 3.52 ± 0.51 | 2.8 ± 0.49 | 2.9 ± 0.2
0.25 µg/ml, genetic background: Δrob | 2.78 ± 0.8 | 2.92 ± 0.18 | 3.17 ± 0.14 | 3.13 ± 0.27 | 2.66 ± 0.37 | 2.73 ± 0.19 | 2.95 ± 0.34 | 3.11 ± 0.12
0.25 µg/ml, genetic background: ΔsoxS | 3.12 ± 0.13 | 3.31 ± 0.38 | 3.27 ± 0.91 | 2.93 ± 0.19 | 3.09 ± 0.31 | 3.16 ± 0.33 | 3.22 ± 0.13 | 2.88 ± 0.061
0.51 µg/ml, genetic background: wild type | 2.6 ± 0.34 | 2.73 ± 0.39 | 3.306 ± 0.007 | 3.17 ± 0.057 | 2.94 ± 0.032 | 3.18 ± 0.28 | 2.83 ± 0.17 | 3.05 ± 0.085
0.51 µg/ml, genetic background: ΔmarA | 2.55 ± 0.032 | 3.59 ± 0.38 | 2.973 ± 0.018 | 3.17 ± 0.76 | 3.14 ± 1.1 | 3.36 ± 0.47 | 2.51 ± 0.57 | 2.6 ± 0.31
0.51 µg/ml, genetic background: Δrob | 2.69 ± 0.77 | 2.912 ± 0.012 | 3.29 ± 0.17 | 2.95 ± 0.45 | 2.42 ± 0.68 | 2.6 ± 0.35 | 2.84 ± 0.22 | 3.04 ± 0.37
0.51 µg/ml, genetic background: ΔsoxS | 2.88 ± 0.56 | 3.21 ± 0.73 | 3.15 ± 0.87 | 2.35 ± 0.33 | 2.69 ± 0.71 | 2.86 ± 0.36 | 2.92 ± 0.13 | 2.73 ± 0.078
